# In PubChem BioAssay AID662 (National Center for Advancing Translational Sciences (NCATS), 2007):
# This is one part of the list. These are further read-outs of the screen, such as a control signal, another cell line or another target. No call is given for them. Most of these compounds were active or inconclusive in the main read-out, so they are no random draw. Potencies come from curve fits of mixed quality, noted in brackets.
# Assay: Cell signaling CRE-BLA (Fsk stim)
# Details: CHO CRE-bla reporter (cAMP response element driving beta-lactamase), forskolin EC10, beta-lactamase ratio; measured here: 460 nm blue channel
# In short: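 CRE-bla CHO cells stimulated with EC10 NKH 477 (water-soluble forskolin) and compound titrations, 3 h at 37C; beta-lactamase read with CCF4 after 2 h at room temperature. Activity from 460/530 nm emission ratio, AC50 values for positive or negative modulation.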
row,Compound,AC50
1,COC(=O)COc1ccc(S(=O)(=O)NCc2cccnc2)cc1C,"1.58 µM [falling, full curve, poor fit]"
2,O=C(CCN1CCN(C/C=C/c2ccccc2)CC1)Nc1ccccc1,"0.316 µM [rising, full curve]"
3,COc1ccc(-n2c(SC3CCOC3=O)nc3ccccc3c2=O)cc1OC (stereo not drawn),"12.6 µM [rising, single point]"
4,Cc1cc(OC2CCCCC2)nc(-c2ccccc2O)n1,"0.398 µM [rising, full curve]"
5,Cc1ccc(-n2c(SCC(=O)Nc3cc(C)on3)nc3c(c2=O)SC(C)C3)cc1 (stereo not drawn),"20 µM [rising, single point]"
6,C=CCNc1nc(N(c2ccccc2)c2ccccc2)nc(-n2ccnc2)n1,"1.26 µM [rising, full curve]"
7,COc1ccccc1N1CCN(C(=O)C(NS(=O)(=O)c2cccs2)c2ccccc2)CC1 (stereo not drawn),"0.158 µM [falling, full curve]"
8,Cn1c(=O)c(-c2ccccc2)nc2cnc(N3CCNCC3)nc21,"5.01 µM [rising, partial curve]"
9,NCCC[C@@H](CC(=O)N[C@@H]1CCCC[C@H]1C(=O)N[C@H](CC(=O)N[C@@H](CCC(=O)O)CC(=O)O)Cc1ccccc1)NC(=O)C[C@H](CO)NC(=O)[C@@H]1CNCC[C@H]1N,"10 µM [falling, full curve]"
10,Cc1nn(Cc2ccccc2)c(C)c1NC(=O)c1cc(-c2ccc3c(c2)OCO3)on1,"0.158 µM [rising, full curve, poor fit]"
11,CNC(=O)NC(=O)CSc1nc2cc(C(=O)OC)ccc2c(=O)n1-c1ccccc1,"5.01 µM [falling, single point]"
12,Cc1cc(C)n(-c2nc3c(c(=O)[nH]c(=O)n3C)n2CC(O)COc2ccccc2C)n1 (stereo not drawn),"10 µM [rising, partial curve]"
13,Cc1ccccc1-c1ccc2ncnc(N(C)Cc3ccco3)c2c1,"10 µM [rising, partial curve]"
14,CCOCCCNC(=O)c1ccc2c(c1)OCO2,"0.631 µM [rising, full curve, poor fit]"
15,O=c1c(-c2cccc(F)c2)nc2cncnc2n1Cc1ccc(F)cc1,"7.94 µM [rising, partial curve]"
16,CCOC(=O)Cc1nnc(NC(=O)CSc2nncn2C)s1,"3.98 µM [rising, single point]"
17,CCc1nnc(NC(=O)CCC(=O)N2CCN(Cc3cc(Cl)ccc3OC)CC2)s1,"5.01 µM [falling, single point]"
18,Clc1ccccc1CNc1ncnc2nc[nH]c12,"25.1 µM [falling, single point]"

# Two entries from above, reformatted.
row	Compound	AC50
11	CNC(=O)NC(=O)CSc1nc2cc(C(=O)OC)ccc2c(=O)n1-c1ccccc1	5.01 µM [falling, single point]
12	Cc1cc(C)n(-c2nc3c(c(=O)[nH]c(=O)n3C)n2CC(O)COc2ccccc2C)n1 (stereo not drawn)	10 µM [rising, partial curve]
